Patent US9175036B2 (BEN-GURION UNVERSITY OF THE NEGEV RESEARCH AND DEVELOPMENT …, priority 2009, dated 2015)

Assay: general procedure: Fmoc solid-phase peptide synthesis; Rink resin 0.7 mmol/g; Wang resin 0.6 mmol/g; Fmoc-Trp(Boc)-Wang; Fmoc-D-Trp(Boc)-Wang; Fmoc-β-Ala-Wang; Fmoc-Asp(Wang r); HOBt/DIC (PEG coupling)
Conditions: whole synthesis, RP-HPLC, scale of the general procedure 0.1-0.2 mmol

CGGGGKLWKKWAKKWLKLWKAW
crude HPLC purity: 15%-20% | final HPLC purity: 73%

CGGGGYKLLKLLLPKLKGLLFKL-NH2
crude HPLC purity: 27.6%

CGGGRRWWRF-NH2
crude HPLC purity: 30%-50% | final HPLC purity: 95%

CXFVQWFSKFLGRIL-NH2
crude HPLC purity: 22%

CXKLWKKWAKKWLKLWKAW
crude HPLC purity: 15%-20% | final HPLC purity: 73%

CXRRWWRF-NH2
crude HPLC purity: 27%

GGGGKLWKKWAKKWLKLWKAW
crude HPLC purity: 20%

KLWKKWAKKWLKLWKAW
crude HPLC purity: 30%-45%

Plain letter strings leave the end groups untold.
